Measurements taken from the supplement of paper PMC12819154, “High-throughput peptide-centric local stability assay extends protein–ligand identification to membrane proteins, tissues and bacteria” (Nature Structural & Molecular Biology, 2025).
The other results are listed elsewhere or left out. Small differences around the control level are noise.

Protein sequences, listed by entry. Tags and fused reporters are not part of them. Lines headed by an entry give the natural chain unless they say otherwise; changes in a name come on top.
UniProt O75909: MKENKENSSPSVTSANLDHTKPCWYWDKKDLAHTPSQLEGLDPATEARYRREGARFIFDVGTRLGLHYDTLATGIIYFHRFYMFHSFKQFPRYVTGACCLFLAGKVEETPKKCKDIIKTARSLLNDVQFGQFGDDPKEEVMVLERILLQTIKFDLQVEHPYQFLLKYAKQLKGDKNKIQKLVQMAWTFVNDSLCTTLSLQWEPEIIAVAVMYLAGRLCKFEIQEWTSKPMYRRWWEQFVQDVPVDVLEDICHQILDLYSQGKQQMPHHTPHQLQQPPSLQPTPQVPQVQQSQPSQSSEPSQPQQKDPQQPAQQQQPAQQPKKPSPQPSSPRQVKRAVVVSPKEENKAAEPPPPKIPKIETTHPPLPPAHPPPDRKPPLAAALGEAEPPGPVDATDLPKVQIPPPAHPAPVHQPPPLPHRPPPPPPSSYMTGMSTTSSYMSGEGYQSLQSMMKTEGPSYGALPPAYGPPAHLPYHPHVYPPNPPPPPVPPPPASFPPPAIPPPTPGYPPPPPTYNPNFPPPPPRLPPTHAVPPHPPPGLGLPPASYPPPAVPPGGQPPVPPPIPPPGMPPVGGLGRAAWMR
UniProt O95208: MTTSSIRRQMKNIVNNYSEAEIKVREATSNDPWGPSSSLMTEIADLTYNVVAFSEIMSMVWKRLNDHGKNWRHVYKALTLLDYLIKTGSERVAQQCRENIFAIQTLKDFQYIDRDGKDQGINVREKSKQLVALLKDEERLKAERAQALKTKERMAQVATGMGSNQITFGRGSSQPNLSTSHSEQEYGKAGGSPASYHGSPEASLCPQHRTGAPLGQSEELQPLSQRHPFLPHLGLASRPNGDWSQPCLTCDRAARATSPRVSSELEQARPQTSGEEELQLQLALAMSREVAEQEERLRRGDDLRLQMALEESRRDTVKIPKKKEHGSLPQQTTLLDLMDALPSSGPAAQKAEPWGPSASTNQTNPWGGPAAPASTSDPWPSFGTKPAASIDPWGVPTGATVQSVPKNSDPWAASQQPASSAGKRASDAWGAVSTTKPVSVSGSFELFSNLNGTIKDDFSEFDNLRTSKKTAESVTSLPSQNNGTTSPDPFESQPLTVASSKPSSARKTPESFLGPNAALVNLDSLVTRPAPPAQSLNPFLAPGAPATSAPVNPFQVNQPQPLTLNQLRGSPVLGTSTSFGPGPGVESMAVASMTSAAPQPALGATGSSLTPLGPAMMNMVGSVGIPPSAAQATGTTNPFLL
UniProt O95926: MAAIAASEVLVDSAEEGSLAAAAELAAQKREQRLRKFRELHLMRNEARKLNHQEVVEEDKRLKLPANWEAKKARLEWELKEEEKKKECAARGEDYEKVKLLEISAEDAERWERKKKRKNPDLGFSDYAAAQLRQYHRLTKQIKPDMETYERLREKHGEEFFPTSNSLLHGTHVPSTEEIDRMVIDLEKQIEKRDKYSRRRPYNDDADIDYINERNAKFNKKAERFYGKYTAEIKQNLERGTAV
UniProt O75808: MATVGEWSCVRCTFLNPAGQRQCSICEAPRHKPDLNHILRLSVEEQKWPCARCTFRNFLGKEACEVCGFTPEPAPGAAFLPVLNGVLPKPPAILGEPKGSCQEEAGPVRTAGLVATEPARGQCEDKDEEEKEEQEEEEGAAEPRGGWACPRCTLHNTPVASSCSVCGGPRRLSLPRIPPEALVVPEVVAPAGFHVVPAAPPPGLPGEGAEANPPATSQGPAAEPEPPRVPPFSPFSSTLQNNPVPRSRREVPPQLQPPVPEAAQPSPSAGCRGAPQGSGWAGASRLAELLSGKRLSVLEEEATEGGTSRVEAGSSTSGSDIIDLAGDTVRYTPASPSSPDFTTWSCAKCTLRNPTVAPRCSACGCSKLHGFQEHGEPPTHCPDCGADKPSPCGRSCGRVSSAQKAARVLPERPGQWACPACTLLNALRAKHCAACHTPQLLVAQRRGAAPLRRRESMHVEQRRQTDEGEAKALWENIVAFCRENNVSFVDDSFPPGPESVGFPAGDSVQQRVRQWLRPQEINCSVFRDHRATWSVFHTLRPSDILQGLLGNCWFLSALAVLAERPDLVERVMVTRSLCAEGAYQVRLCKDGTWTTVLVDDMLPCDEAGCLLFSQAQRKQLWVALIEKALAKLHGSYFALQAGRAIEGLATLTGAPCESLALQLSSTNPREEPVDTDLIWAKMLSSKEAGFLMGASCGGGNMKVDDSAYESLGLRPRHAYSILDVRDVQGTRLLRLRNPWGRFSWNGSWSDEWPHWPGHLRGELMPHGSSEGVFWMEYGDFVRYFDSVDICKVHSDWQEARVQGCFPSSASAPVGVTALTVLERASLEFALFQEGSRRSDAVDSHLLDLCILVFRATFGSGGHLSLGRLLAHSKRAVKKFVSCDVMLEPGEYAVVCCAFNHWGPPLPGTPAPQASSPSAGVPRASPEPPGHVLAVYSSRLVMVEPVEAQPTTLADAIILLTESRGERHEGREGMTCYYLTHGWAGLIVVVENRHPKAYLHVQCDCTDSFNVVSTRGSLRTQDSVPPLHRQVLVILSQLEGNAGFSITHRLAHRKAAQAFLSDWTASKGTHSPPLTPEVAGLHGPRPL
UniProt O75935, whole entry: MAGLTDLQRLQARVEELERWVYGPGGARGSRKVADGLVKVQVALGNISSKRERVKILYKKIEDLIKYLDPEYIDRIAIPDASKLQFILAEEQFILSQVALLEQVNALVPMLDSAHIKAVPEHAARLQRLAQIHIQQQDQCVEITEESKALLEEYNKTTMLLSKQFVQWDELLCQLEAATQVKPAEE
UniProt O95263: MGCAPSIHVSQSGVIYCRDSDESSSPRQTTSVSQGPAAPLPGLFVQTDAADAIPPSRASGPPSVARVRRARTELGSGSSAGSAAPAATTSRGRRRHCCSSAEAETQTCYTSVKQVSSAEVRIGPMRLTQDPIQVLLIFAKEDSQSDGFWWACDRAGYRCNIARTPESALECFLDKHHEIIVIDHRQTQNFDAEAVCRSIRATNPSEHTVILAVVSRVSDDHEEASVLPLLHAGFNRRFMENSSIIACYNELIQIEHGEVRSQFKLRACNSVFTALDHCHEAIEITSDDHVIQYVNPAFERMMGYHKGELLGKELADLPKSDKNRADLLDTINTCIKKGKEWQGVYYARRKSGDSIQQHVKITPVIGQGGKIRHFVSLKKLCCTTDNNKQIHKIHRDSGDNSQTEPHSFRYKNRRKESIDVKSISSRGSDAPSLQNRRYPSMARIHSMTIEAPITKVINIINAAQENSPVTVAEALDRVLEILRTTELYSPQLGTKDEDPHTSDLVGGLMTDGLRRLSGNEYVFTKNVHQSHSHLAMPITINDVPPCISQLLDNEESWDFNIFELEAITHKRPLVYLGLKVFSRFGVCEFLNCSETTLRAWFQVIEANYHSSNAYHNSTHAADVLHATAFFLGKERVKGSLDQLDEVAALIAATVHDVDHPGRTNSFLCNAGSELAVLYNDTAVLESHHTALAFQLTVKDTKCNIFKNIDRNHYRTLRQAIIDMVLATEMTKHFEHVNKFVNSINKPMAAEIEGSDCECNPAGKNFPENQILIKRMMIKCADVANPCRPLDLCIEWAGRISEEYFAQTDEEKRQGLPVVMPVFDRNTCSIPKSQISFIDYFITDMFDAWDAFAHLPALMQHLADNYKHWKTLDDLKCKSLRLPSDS
UniProt O95620: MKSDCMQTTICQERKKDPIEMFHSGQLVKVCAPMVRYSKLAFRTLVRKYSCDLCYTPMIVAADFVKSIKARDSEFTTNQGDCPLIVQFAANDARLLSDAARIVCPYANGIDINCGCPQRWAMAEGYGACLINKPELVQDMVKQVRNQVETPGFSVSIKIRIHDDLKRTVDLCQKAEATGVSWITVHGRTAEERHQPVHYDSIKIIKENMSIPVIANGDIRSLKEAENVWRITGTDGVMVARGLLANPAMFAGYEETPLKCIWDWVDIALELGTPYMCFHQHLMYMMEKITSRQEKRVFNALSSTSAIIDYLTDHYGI
UniProt O95628: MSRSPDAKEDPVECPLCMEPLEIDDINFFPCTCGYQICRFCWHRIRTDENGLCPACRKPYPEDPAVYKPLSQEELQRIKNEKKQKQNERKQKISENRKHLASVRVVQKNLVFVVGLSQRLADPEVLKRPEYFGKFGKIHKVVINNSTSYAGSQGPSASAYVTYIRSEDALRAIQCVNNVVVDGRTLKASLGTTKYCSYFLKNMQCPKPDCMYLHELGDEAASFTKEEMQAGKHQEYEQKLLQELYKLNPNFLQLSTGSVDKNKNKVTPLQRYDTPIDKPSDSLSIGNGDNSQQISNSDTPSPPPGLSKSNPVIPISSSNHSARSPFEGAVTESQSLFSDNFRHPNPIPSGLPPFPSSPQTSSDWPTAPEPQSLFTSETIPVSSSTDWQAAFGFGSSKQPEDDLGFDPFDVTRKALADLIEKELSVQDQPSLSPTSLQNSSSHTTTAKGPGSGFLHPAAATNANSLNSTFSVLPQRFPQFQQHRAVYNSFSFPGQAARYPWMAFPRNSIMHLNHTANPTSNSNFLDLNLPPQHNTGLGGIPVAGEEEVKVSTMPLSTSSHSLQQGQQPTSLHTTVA
UniProt O75694: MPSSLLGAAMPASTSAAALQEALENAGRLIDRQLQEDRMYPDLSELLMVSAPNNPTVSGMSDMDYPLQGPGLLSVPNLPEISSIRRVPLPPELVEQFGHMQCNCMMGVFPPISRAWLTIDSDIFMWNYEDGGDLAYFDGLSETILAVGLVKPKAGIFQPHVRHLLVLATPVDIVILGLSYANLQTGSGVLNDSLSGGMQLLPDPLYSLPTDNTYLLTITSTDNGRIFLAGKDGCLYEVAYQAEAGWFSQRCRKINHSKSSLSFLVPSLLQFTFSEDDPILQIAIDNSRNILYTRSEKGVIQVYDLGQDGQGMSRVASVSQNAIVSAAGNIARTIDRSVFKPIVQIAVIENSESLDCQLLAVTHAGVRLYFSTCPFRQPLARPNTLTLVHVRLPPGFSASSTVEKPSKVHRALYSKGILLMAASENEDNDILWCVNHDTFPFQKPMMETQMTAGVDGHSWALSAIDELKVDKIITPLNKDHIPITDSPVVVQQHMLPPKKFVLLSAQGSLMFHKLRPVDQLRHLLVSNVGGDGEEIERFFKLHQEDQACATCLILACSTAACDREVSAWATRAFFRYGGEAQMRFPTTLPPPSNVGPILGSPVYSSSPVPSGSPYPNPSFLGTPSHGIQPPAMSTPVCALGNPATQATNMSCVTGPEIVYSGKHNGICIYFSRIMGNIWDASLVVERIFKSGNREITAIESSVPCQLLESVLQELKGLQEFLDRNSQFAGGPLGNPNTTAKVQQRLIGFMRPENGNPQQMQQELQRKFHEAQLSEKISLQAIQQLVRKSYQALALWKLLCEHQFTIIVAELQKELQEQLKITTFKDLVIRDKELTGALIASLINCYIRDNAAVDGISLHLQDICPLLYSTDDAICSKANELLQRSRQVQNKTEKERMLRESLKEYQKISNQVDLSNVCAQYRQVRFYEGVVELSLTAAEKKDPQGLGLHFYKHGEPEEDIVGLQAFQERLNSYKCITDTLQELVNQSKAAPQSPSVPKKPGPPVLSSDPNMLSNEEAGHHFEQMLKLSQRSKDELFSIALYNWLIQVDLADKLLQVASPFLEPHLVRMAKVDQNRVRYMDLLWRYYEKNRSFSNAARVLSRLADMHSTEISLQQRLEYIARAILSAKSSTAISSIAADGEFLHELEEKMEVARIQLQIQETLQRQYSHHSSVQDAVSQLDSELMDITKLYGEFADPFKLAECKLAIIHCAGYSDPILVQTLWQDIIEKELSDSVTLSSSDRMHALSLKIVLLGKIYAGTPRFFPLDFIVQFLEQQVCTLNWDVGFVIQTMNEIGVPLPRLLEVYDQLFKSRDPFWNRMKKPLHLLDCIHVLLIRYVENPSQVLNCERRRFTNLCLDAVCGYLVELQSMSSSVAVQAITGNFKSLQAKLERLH
UniProt O96015: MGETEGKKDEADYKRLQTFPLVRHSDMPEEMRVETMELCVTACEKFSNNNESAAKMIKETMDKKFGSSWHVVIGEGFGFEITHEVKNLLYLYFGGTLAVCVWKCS
UniProt O75467: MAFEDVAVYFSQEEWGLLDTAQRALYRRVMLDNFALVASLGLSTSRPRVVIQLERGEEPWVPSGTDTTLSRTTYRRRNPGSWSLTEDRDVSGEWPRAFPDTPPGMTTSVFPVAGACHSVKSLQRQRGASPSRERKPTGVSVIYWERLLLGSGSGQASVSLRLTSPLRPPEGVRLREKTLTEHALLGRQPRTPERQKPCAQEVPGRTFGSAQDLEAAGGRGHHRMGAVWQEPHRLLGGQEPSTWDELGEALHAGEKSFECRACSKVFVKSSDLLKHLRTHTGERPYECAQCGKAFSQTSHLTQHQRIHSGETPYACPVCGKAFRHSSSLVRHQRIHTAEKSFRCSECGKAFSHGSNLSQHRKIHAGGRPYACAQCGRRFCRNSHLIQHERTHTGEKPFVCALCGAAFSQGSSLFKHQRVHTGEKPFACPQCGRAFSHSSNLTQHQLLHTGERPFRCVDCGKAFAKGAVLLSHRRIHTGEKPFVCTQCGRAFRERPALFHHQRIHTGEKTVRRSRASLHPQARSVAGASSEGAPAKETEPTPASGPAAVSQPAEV

Compound: Cc1nc(Nc2ncc(C(=O)Nc3c(C)cccc3Cl)s2)cc(N2CCN(CCO)CC2)n1 [dasatinib]
Assay: log2 fold change of tryptic peptide abundance, ligand vs vehicle (limited proteolysis) (log2 ratio); higher = more trypsin-susceptible (destabilized)
Details: ligand concentration: 5 uM; sample: K562 cleared lysate

Row | Target | log2 fold change
1 | SLU7 (peptide sequence: KKELEEQR, peptide start residue: 36) (UniProt O95391) | -0.952
2 | UniProt O95758 (peptide sequence: EGQEDQGLTKDFSNSPLHR, peptide start residue: 440) | -0.22
3 | UniProt O95670 (peptide sequence: ASQSQGIQQLLQAEKR, peptide start residue: 2) | -0.207
4 | PRPF6 (peptide sequence: LLLKSVRETNPHHPPAWIASAR, peptide start residue: 296) (UniProt O94906) | 0.633
5 | CCNK (peptide sequence: AAEPPPPKIPK, peptide start residue: 347) (UniProt O75909) | -0.207
6 | GLUD1 (peptide sequence: MVEGFFDR, peptide start residue: 69) (UniProt P00367) | 0.152
7 | UniProt O95251 (peptide sequence: YLHNFQGK, peptide start residue: 530) | -0.161
8 | EPN2 (peptide sequence: GSSQPNLSTSHSEQEYGK, peptide start residue: 171) (UniProt O95208) | 0.462
9 | SYF2 (peptide sequence: GEDYEKVK, peptide start residue: 92) (UniProt O95926) | -0.172
10 | PTTG1 (peptide sequence: LFQLGPPSPVK, peptide start residue: 158) (UniProt O95997) | -0.317
11 | UniProt O75808 (peptide sequence: LAELLSGKR, peptide start residue: 286) | 0.238
12 | DCTN3 (peptide sequence: YLDPEYIDR, peptide start residue: 67) (UniProt O75935) | -0.0721
13 | PSIP1 (peptide sequence: NFQTAHRR, peptide start residue: 293) (UniProt O75475) | -1.06
14 | PDE8B (peptide sequence: IHSMTIEAPITK, peptide start residue: 384) (UniProt O95263) | -0.103
15 | DUS4L (peptide sequence: KKDPIEMFHSGQLVK, peptide start residue: 15) (UniProt O95620) | 0.409
16 | MPDZ (peptide sequence: LTIHAENPDSQAVPSAAGAASGEKK, peptide start residue: 1558) (UniProt O75970) | -0.43
17 | UniProt O94822 (peptide sequence: VFNIVDRFTSK, peptide start residue: 1590) | -0.264
18 | TTC4 (peptide sequence: KCADPDLNAVLYTNR, peptide start residue: 109) (UniProt O95801) | 0.0988
19 | IPO13 (peptide sequence: CGEVESVGK, peptide start residue: 848) (UniProt O94829) | -0.279
20 | CNOT4 (peptide sequence: KALADLIEK, peptide start residue: 413) (UniProt O95628) | -0.25
21 | RAD17 (peptide sequence: IVTIEANK, peptide start residue: 302) (UniProt O75943) | -0.141
22 | NUP155 (peptide sequence: KFVLLSAQGSLMFHK, peptide start residue: 499) (UniProt O75694) | -0.597
23 | CTAG2 (peptide sequence: GPHGGAASAQDGR, peptide start residue: 63) (UniProt O75638) | 0.0766
24 | PPP1R3D (peptide sequence: GPSSAVLPSALGSR, peptide start residue: 4) (UniProt O95685) | 0.0571
25 | SOD1 (peptide sequence: KHGGPKDEER, peptide start residue: 71) (UniProt P00441) | -0.63
26 | PRKD3 (peptide sequence: LHGDMLEMILSSEK, peptide start residue: 630) (UniProt O94806) | 0.19
27 | UniProt O96015 (peptide sequence: FSNNNESAAK, peptide start residue: 46) | 0.31
28 | ZNF324 (peptide sequence: RNPGSWSLTEDRDVSGEWPR, peptide start residue: 77) (UniProt O75467) | 0.239

Two entries from above, in markdown.

| Row | Target | log2 fold change |
| --- | --- | --- |
| 8 | EPN2 (peptide sequence: GSSQPNLSTSHSEQEYGK, peptide start residue: 171) (UniProt O95208) | 0.462 |
| 20 | CNOT4 (peptide sequence: KALADLIEK, peptide start residue: 413) (UniProt O95628) | -0.25 |
